From PMC10128030
Results are given in words; binding and its absence hold for the method and conditions named. For part of these data: Binding seen in cells or lysates may run through a third protein. Some binding calls cover weakened binding; strength is not graded here.

Sequences of proteins named here, by UniProt entry; tags and fusion partners are left off.
UniProt O84288: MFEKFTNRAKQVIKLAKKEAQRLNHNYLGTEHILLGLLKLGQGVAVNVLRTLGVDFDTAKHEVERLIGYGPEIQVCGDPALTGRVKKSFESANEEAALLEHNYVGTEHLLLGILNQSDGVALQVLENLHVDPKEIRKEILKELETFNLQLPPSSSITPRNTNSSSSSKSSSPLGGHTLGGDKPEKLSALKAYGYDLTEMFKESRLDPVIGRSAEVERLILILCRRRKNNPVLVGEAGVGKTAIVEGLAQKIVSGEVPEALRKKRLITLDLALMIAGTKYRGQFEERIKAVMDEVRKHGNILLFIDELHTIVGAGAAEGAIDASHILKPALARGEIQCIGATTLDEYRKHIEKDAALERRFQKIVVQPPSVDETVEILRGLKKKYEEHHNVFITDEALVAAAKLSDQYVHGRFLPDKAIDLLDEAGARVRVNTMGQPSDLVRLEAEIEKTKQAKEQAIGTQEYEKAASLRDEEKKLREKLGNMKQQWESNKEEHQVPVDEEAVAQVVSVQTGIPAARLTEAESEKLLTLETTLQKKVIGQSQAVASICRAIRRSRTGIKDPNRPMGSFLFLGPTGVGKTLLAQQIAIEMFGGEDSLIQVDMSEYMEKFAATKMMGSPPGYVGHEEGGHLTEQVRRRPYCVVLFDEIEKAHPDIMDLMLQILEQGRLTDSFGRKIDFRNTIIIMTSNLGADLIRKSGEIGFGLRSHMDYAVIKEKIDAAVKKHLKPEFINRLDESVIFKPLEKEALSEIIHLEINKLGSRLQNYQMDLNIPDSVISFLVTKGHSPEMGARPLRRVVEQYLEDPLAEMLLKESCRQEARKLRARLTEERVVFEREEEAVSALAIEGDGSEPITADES
UniProt O84711: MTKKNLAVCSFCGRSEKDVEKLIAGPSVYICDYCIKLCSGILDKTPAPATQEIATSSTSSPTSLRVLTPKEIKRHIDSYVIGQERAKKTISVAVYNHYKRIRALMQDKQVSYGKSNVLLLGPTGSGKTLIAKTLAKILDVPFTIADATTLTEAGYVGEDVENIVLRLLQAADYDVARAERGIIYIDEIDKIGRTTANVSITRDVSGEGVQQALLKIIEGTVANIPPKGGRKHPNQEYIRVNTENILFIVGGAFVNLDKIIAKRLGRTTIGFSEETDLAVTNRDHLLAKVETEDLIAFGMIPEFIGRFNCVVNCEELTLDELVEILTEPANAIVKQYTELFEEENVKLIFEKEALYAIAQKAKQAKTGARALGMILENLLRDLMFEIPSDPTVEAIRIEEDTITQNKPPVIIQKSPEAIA

How the values were obtained:
[1] = molecular target: C. trachomatis ClpC, wild type, BACTH fusion (T25 or T18) (C. trachomatis L2 (Bu 434)) (UniProt O84288); experiment: two-hybrid; bacterial adenylate cyclase two-hybrid (BACTH): T25 and T18 fusions from pKT25 and pUT18C cotransformed into Δcya E. coli DHT1; M63 minimal medium plates with maltose, 0.5 mM IPTG and X-Gal; β-galactosidase assay in Miller units
[2] = molecular target: ClpC_6×His, wild type, ectopically expressed in C. trachomatis L2 (C. trachomatis L2 (Bu 434)) (UniProt O84288); experiment: cross-linking; HeLa cells infected with C. trachomatis L2 (wild type or transformants induced at 16 hpi) treated with 0.25 mM DSS in HBSS pH 7.6 on ice at 4°C for at least 1 h; whole-cell lysates on 8% SDS-PAGE, immunoblot with anti-ClpC (endogenous) or anti-6×His (ectopic)

| binding [1] | binding [2] | Substance |
| --- | --- | --- |
| binds | – | C. trachomatis ClpC, wild type, BACTH fusion (T25 or T18) (from UniProt O84288 1-854) |
| no binding | – | C. trachomatis ClpX, BACTH fusion (from UniProt O84711 1-419) |
| – | binds | ClpC_6×His, wild type, ectopically expressed in C. trachomatis L2 (from UniProt O84288 1-854) |
